Data published in the supplement of paper PMC10338343.
± gives the standard deviation. Only a part is listed here, and it is no random draw. Many of these values have a large error. Some of the results follow.

What was measured:
[1] = test system: MILI (PIWIL2) piRISC loaded with L1MC piRNA (26 nt); experiment: pre-steady-state target cleavage rate (min^-1); higher = faster piRNA-guided slicing of the target; conditions: guide: L1MC piRNA 5'p-UAACUAAAUACUAUGCAAGCUGUAGG
Outline: (§1)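 Cleave-'n-Seq reactions paired 0.1 nM transcribed, DNA-blocked target RNA library with 1 nM active affinity-purified piRISC holding one synthetic guide, plus or minus 500 nM GTSF1 partner protein, in HEPES–potassium acetate buffer at 33 °C for 0–8 or 0–960 min. After sequencing of uncleaved targets and normalisation to depth and weakly complementary targets, the pre-steady-state cleavage rate was taken from a burst-and-steady-state fit. Three trials were pooled, and k3 was capped at 0.0001 min^-1.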

[2] = test system: MIWI (PIWIL1) piRISC loaded with L1MC piRNA (30 nt); experiment: as above; conditions: guide: L1MC piRNA 5'p-UAACUAAAUACUAUGCAAGCUGUAGGUCCU
Outline: as §1

[3] = test system: EfPiwi piRISC loaded with L1MC piRNA (26 nt); experiment: pre-steady-state target cleavage rate (min^-1); guide: L1MC piRNA 5'p-UAACUAAAUACUAUGCAAGCUGUAGG; MIWI and MILI are mouse PIWI proteins and EfPiwi is from a freshwater sponge; tags in brackets are library labels; higher = faster piRNA-guided slicing of the target
Outline: as §1

[4] = auxiliary factor: 500 nM mouse GTSF1
[5] = auxiliary factor: none (no GTSF1)
[6] = auxiliary factor: 500 nM Ephydatia muelleri Gtsf1
[7] = auxiliary factor: none (no Gtsf1)

Sequence | pre-steady-state target cleavage rate [1, 4] | pre-steady-state target cleavage rate [1, 5] | pre-steady-state target cleavage rate [2, 4] | pre-steady-state target cleavage rate [2, 5] | pre-steady-state target cleavage rate [3, 6] | pre-steady-state target cleavage rate [3, 7]
UCCUGGAUGAGCUUGCUUAGAAUUUAGUUA | 0.0121 ± 0.0047 | 0.00218 ± 0.0033 | 0.0359 ± 0.0063 | 0.00574 ± 0.0024 | 0.000461 ± 0.0083 | 0.000446 ± 0.016
UCCUGGAUGUCGAAGCAUAGUAUUUAGAUA | 0.00991 ± 0.0044 | 0.00147 ± 0.0033 | – | 0.00115 ± 0.0047 | 0.00115 ± 0.0053 | < 0.0001
UCCUGGAUGUCCUUGCAUAGUAUUGAGUUA | 0.0563 ± 0.019 | 0.00138 ± 0.0053 | 0.142 ± 0.031 | 0.00653 ± 0.0024 | 0.00192 ± 0.0028 | 0.000653 ± 0.0094
UCCUGGAUGUGCUUGCAUAGUAUUUAGAUA | 0.0576 ± 0.014 | 0.0014 ± 0.0044 | 0.118 ± 0.023 | 0.0188 ± 0.0067 | 0.00271 ± 0.0028 | 0.000542 ± 0.014
UCCUGGAUGUCGUUGCAUAUAUUUAGUUA | 0.000524 ± 0.015 | 0.000179 ± 0.016 | 0.000465 ± 0.022 | 0.000743 ± 0.014 | 0.000342 ± 0.011 | 0.000358 ± 0.019
UCCUGGAUGUCCAUGCAUAGUAUUUAGAUA | 0.0163 ± 0.0062 | 0.00223 ± 0.0036 | 0.00405 ± 0.0043 | 0.00154 ± 0.0054 | 0.000499 ± 0.011 | < 0.0001
UCCUGGAACAGUUGCAUAGUAUUUAGUUA | 0.2 ± 0.014 | 0.00668 ± 0.0022 | 0.337 ± 0.022 | 0.00545 ± 0.0021 | 0.0543 ± 0.013 | 0.00165 ± 0.006
UCCUGGAUGUGGUUGCAUACUAUUUAGUUA | 0.0175 ± 0.0072 | 0.00525 ± 0.0036 | 0.00469 ± 0.006 | 0.00133 ± 0.0064 | 0.00252 ± 0.0027 | 0.000321 ± 0.044
UCCUGGAUGUGCUUGCAUAGAAAUUAGUUA | 0.00244 ± 0.0048 | 0.00194 ± 0.0034 | 0.00115 ± 0.01 | 0.00139 ± 0.0049 | 0.000492 ± 0.0076 | 0.00026 ± 0.035
UCCUGGAACAGCUAGCAUAGAAUUUAGUUA | 0.0486 ± 0.0073 | 0.00171 ± 0.003 | 0.209 ± 0.02 | 0.0115 ± 0.0043 | 0.00214 ± 0.0023 | 0.00111 ± 0.0065
UCCUGGAUGUGCUUCCAUAGUAUUUUGUUA | 0.00222 ± 0.0065 | 0.000401 ± 0.019 | 0.00359 ± 0.0053 | 0.000441 ± 0.017 | 0.00071 ± 0.0055 | 0.000339 ± 0.025
UCCUGGAUGUCCUUGCAUAGAUUUAGUUA | 0.00288 ± 0.0048 | 0.000812 ± 0.0049 | 0.00386 ± 0.0041 | 0.00164 ± 0.0034 | 0.00193 ± 0.0052 | 0.000338 ± 0.015
UCCUCCUACAGCUUGCAAAGUUUUUAGUUA | 0.0169 ± 0.0064 | 0.00334 ± 0.0023 | 0.352 ± 0.029 | 0.0137 ± 0.0033 | 0.00281 ± 0.0022 | 0.000546 ± 0.011
UCCUGGAUGAGGAAGCAUAGUAUUUAGUAA | 0.0509 ± 0.013 | 0.00237 ± 0.0037 | 0.00364 ± 0.0038 | 0.00153 ± 0.0042 | 0.000423 ± 0.011 | 0.000156 ± 0.022
UCCUGGAUGUCGUUGCGUAGUAUUUAGUUA | 0.0164 ± 0.0059 | 0.00779 ± 0.0026 | 0.00186 ± 0.0055 | 0.00259 ± 0.004 | 0.00161 ± 0.0051 | 0.000348 ± 0.026
UCCUGGUACAGCUUGGUAAGUAUUUUCAAA | 0.00138 ± 0.0099 | 0.00114 ± 0.0069 | 0.000955 ± 0.017 | 0.000276 ± 0.0092 | 0.00026 ± 0.035 | 0.000693 ± 0.013
UCCUGGAACAGCUACGAUAGUAUUUACAAA | 0.00237 ± 0.0051 | 0.000596 ± 0.0083 | 0.000946 ± 0.011 | 0.00111 ± 0.007 | 0.0003 ± 0.014 | 0.000108 ± 0.059

Sequence | pre-steady-state target cleavage rate [1, 4] | pre-steady-state target cleavage rate [1, 5] | pre-steady-state target cleavage rate [2, 4] | pre-steady-state target cleavage rate [2, 5] | pre-steady-state target cleavage rate [3, 6] | pre-steady-state target cleavage rate [3, 7]
UCCUGGAUGUCGAAGGAUAGUAUUUAGUUA | 0.00242 ± 0.0026 | 0.00014 ± 0.015 | 0.000216 ± 0.017 | 0.000358 ± 0.011 | 0.000208 ± 0.015 | < 0.0001
UCCUGGAUGUCGAACCAUUGAAUUUAGUUA | 0.000343 ± 0.01 | 0.000198 ± 0.021 | 0.000364 ± 0.0084 | 0.000375 ± 0.014 | < 0.0001 | 0.000237 ± 0.023
UCCUGGAUGUCCUUGCAUAGAUAUUUAGUUA | 0.00754 ± 0.004 | 0.00426 ± 0.0023 | 0.003 ± 0.0041 | 0.00231 ± 0.0036 | 0.00146 ± 0.0046 | 0.000333 ± 0.015
UCCUGGAUGUGCUUGCAUCAGUAUUUAGUUA | 0.00297 ± 0.0044 | 0.00089 ± 0.0093 | 0.00212 ± 0.0054 | 0.000887 ± 0.013 | 0.00147 ± 0.0056 | 0.000526 ± 0.014
UCCUGGAUGACGCUUGCAUAGUAUUUAGUUA | 0.211 ± 0.022 | 0.00493 ± 0.0037 | 0.911 ± 0.059 | 0.0648 ± 0.0085 | 0.0537 ± 0.014 | 0.000728 ± 0.02
UCCUGGAUGUCCUUGCAUAGUAUUUUCUAA | 0.0134 ± 0.0068 | 0.00293 ± 0.0033 | 0.00274 ± 0.0055 | 0.00187 ± 0.0041 | 0.00147 ± 0.0054 | 0.000194 ± 0.039
UCCUGGAUGUCGUUGCAUAGUAUUUAGUA | 0.148 ± 0.022 | 0.00424 ± 0.0026 | 0.00151 ± 0.0062 | 0.00275 ± 0.0036 | 0.00202 ± 0.0044 | 0.000125 ± 0.062
UCCUGGAUGUCGUUGCAUAGUAUUUUCUUA | 0.00558 ± 0.0035 | 0.000559 ± 0.011 | 0.00163 ± 0.0053 | 0.000334 ± 0.009 | 0.00037 ± 0.0062 | 0.000171 ± 0.044
UCCUGGAUGUGCUUGCAUAGAUUUUAGUUA | 0.00729 ± 0.0044 | 0.00375 ± 0.0024 | 0.00264 ± 0.0055 | 0.00135 ± 0.0054 | 0.000454 ± 0.011 | 0.000128 ± 0.04
UCCUGGAUGUCGUUGCUAUAGUAUUUAGUUA | 0.00133 ± 0.0073 | 0.000377 ± 0.014 | 0.000177 ± 0.027 | 0.000617 ± 0.013 | 0.000761 ± 0.0067 | 0.000242 ± 0.032
UCCUGGAUGUGCUUGCAUACAUUUUAGAAA | 0.000625 ± 0.014 | 0.000426 ± 0.012 | 0.000882 ± 0.012 | 0.000631 ± 0.009 | 0.000332 ± 0.0095 | 0.000156 ± 0.042
UCCUGGAUGUCGUUGCAUAGUUUUAGUUA | 0.000802 ± 0.014 | 0.000898 ± 0.0066 | 0.000514 ± 0.023 | 0.00179 ± 0.0038 | 0.000247 ± 0.016 | < 0.0001
UCCUGGAUGUCCUUGCUUAGUAUUUAGAUA | 0.0358 ± 0.0092 | 0.00226 ± 0.0024 | 0.00397 ± 0.004 | 0.00153 ± 0.0049 | 0.000347 ± 0.013 | 0.00019 ± 0.029
UCCUGGAUGAGCUUGCAUUCUAUUUAGUAA | 0.00157 ± 0.0074 | 0.000381 ± 0.017 | 0.00286 ± 0.0054 | 0.000853 ± 0.0078 | 0.000534 ± 0.007 | 0.000103 ± 0.041
UCCUGGAACAGCUUGCAAUCUAUUUAGAAA | 0.00239 ± 0.0047 | 0.000194 ± 0.015 | 0.00161 ± 0.0067 | 0.000441 ± 0.0077 | 0.000283 ± 0.017 | 0.000416 ± 0.012
UCCUGGAACUGCUAGCAUAGUAUUUAGUUA | 0.215 ± 0.015 | 0.00611 ± 0.0019 | 0.534 ± 0.037 | 0.00949 ± 0.0035 | 0.0171 ± 0.0058 | 0.0012 ± 0.0073
UCCUGGAUGUCCUUGCAUAGUUUUAAGUUA | 0.0115 ± 0.0059 | 0.00312 ± 0.0026 | 0.00271 ± 0.0057 | 0.00233 ± 0.0036 | 0.000995 ± 0.0052 | 0.000362 ± 0.02

Whole records as entered above:
UCCUGGAUGUGCUUGCAUCAGUAUUUAGUUA is entered as pre-steady-state target cleavage rate [1, 4]: 0.00297 ± 0.0044; pre-steady-state target cleavage rate [1, 5]: 0.00089 ± 0.0093; pre-steady-state target cleavage rate [2, 4]: 0.00212 ± 0.0054; pre-steady-state target cleavage rate [2, 5]: 0.000887 ± 0.013; pre-steady-state target cleavage rate [3, 6]: 0.00147 ± 0.0056; pre-steady-state target cleavage rate [3, 7]: 0.000526 ± 0.014
UCCUGGAACAGCUUGCAAUCUAUUUAGAAA is entered as pre-steady-state target cleavage rate [1, 4]: 0.00239 ± 0.0047; pre-steady-state target cleavage rate [1, 5]: 0.000194 ± 0.015; pre-steady-state target cleavage rate [2, 4]: 0.00161 ± 0.0067; pre-steady-state target cleavage rate [2, 5]: 0.000441 ± 0.0077; pre-steady-state target cleavage rate [3, 6]: 0.000283 ± 0.017; pre-steady-state target cleavage rate [3, 7]: 0.000416 ± 0.012
